Assay results as given in patent US20160031955A1 (INSERM INSTITUT NATIONAL DE LA SANT ET DE LA RECHERCHE M …, published 2016).
These are yes or no findings as the source states them, for the method shown. In cells and extracts the contact can be indirect. Some binding calls cover weakened binding; strength is not graded here.

Biological target: GST-tagged AIF (GST-AIF) immobilized on glutathione-Sepharose beads (human) [GST: P08515]
Assay: competitive GST pull-down, GST-AIF preincubated with peptide before His-MIA40

MSYCRQEGKDRIIFVTKEDHETPSSAE [synthetic peptide MIA40 1-27]
binding: binds
